Test system: récepteurs muscariniques
Parameters: species or system rat CFY
Details: 1,5 nM (³H) QNB; rat brain homogenate without cerebellum; 25°C, 60 minutes; non-specific binding with atropine 10⁻⁵M; test concentration not given

## O=C(CCCN1CCC(O)(c2ccc(Cl)cc2)CC1)c1ccc(F)cc1 [Halopéridol, reference compound]
  Inhibition, % (binding de ³H QNB): 0%
